# Measurements: patent publication US20210220370A1, “SELECTIVE HDAC8 INHIBITORS AND THEIR USES” (HOCHSCHULE DARMSTADT, priority 2015, published 2021)
# Some results were stated once for a whole list of compounds, not compound by compound.
# Biological target: T1, HDAC8 (Homo sapiens, UniProt Q9BY41)
# T1 sequence (Q9BY41 1-377): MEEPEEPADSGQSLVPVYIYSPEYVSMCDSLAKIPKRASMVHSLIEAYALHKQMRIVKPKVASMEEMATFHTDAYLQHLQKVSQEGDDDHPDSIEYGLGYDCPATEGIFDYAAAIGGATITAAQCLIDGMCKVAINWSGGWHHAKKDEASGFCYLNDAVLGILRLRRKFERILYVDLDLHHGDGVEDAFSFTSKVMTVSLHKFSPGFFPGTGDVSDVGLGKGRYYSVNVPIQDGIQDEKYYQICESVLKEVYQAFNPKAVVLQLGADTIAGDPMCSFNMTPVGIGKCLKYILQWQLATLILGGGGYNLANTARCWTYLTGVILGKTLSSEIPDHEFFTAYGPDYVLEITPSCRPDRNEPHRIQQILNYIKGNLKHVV
# Assay: HDAC8 colorimetric assay, substrate Boc-Lys(TFA)-AMC
# Details: matching pairs 13a/13b, 13e/13c, 13h/13i
smiles,measurement,value
"N=C1Sc2ccc(Cl)cc2C2=NCCCN12 [Compound 13e, 10-Chloro-3,4-Dihydrobenzo[e]Pyrimido[1,2-c][1,3]Thiazin-6(2H)-Imine]","times more potent on HDAC8 than the corresponding 2H-benzo[e]imidazo[1,2-c][1,3]thiazin-5(3H)-imine",at least 30
"N=C1Sc2c(F)cccc2C2=NCCCN12 [Compound 13h, 8-Fluoro-3,4-dihydrobenzo[e]pyrimido[1,2-c][1,3]thiazin-6(2H)-imine]","times more potent on HDAC8 than the corresponding 2H-benzo[e]imidazo[1,2-c][1,3]thiazin-5(3H)-imine",at least 30
